# Reference: PubChem BioAssay (EPA / NIEHS)
# Amino acid sequences for entries named in this document (tags omitted). A change or cut given only in a name is not applied to a line headed by its entry.
# UniProt P19793: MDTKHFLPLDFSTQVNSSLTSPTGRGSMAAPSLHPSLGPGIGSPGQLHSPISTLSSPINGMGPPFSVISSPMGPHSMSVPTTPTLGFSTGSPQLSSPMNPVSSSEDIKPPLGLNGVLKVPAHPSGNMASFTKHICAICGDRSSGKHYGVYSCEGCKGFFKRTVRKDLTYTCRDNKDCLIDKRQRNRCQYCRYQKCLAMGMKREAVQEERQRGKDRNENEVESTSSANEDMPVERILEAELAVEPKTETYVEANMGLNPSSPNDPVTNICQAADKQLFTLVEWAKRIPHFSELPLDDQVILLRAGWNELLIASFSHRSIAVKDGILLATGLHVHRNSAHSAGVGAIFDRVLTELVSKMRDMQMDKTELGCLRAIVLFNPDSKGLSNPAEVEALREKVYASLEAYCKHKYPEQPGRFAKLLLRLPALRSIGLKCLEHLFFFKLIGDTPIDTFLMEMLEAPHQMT
# UniProt P04637, whole entry, looked up: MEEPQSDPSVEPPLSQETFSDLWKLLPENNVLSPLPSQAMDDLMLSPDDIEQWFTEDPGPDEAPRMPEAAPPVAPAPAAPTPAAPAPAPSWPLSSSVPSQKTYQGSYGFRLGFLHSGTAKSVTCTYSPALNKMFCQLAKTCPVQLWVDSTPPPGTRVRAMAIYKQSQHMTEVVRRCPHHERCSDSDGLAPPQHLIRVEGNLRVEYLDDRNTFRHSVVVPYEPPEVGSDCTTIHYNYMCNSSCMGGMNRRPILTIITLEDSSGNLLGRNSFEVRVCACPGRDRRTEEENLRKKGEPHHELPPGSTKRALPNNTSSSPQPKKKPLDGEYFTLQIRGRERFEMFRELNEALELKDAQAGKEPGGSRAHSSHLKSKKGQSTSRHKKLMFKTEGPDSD
# UniProt P37231: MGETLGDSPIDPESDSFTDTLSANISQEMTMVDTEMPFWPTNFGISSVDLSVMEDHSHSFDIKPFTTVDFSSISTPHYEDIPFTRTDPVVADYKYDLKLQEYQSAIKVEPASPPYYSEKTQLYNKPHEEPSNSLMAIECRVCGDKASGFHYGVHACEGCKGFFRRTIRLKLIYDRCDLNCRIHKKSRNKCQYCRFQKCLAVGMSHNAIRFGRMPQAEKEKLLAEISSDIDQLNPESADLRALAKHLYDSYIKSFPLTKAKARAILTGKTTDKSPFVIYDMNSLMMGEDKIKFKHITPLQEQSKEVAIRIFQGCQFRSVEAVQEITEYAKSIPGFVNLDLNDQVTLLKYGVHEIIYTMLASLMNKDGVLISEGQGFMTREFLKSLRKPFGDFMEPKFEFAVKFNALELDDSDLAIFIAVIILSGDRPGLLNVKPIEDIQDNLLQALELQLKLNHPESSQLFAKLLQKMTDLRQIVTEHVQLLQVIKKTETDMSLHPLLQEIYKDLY
# “And” between values parts separate entries of the source, which are not always exact repeats. Identical values can stand only once. This list was built around the results that the source calls inconclusive (neither active nor inactive); the mix of calls is not that of the screen. For some assays here: A potency beside an inconclusive call is a rough fit, not a confirmed value. More than one record can exist for a structure, and the calls need not agree. The source made the active and inactive calls. The calls were made as follows: active = hit-call score of the fitted dose curve at least 0.9, where 1 is the maximum; inconclusive = response in the unintended direction; inactive = score below 0.9.
# Key:
# [1] = target: Retinoic acid receptor RXR-alpha (Homo sapiens) (UniProt P19793); assay: OT_NURR1_NURR1RXRa_0480: Odyssey Thera (OT) 8-hour HEK293T Protein Complementation Assay for Nurr1/retinoid X receptor (RXR) (AID 2283385)
# How it was run: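 Interaction of Nurr1 with RXRα read as reconstituted reporter fluorescence in a HEK293T fragment-complementation system, 8 h post-treatment; increase over DMSO baseline analysed.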
# [2] = target: Retinoic acid receptor RXR-alpha (Homo sapiens) (UniProt P19793); assay: OT_NURR1_NURR1RXRa_1440: Odyssey Thera (OT) 24-hour HEK293T Protein Complementation Assay for Nurr1/retinoid X receptor (RXR) (AID 2283386)
# How it was run: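 Gain in fluorescence, fitted relative to DMSO, reflects Nurr1–RXRα association in HEK293T cells after 24 h dosing. Bait and prey are each linked to a reporter-protein fragment that reassembles on interaction.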
# [3] = TOX21_p53_BLA_p2_viability: Viability Assessment in the Tox21 HCT-116 p53 Agonism Beta-lactamase Assay, Phase 2 (AID 2283591);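 also: compound exposure lasted 16 h at 37 °C; actives lower the ATP signal meaning cytotoxicity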
# How it was run: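 Cytotoxicity readout: CellTiter-Glo ATP luminescence, 30 min at room temperature, after the beta-lactamase read. Cells were HCT116 exposed 16 h at 37C to compounds pin-transferred at 217-fold dilution from DMSO stocks.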
# [4] = target: Cellular tumor antigen p53 (Homo sapiens) (UniProt P04637); assay: TOX21_p53_BLA_p3_ratio: Tox21 HCT-116 p53 Agonism Beta-lactamase Assay, Ratio, Phase 3 (AID 2283596)
# How it was run: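 Cells were seeded at 4000/well, rested 5 h at 37C, then dosed with DMSO compound solutions (217-fold dilution) for 16 h. CCF4-AM substrate was loaded for 2 h at room temperature, and the 460/530 nm emission ratio was fitted for gain of signal versus DMSO.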
# [5] = TOX21_p53_BLA_p4_viability: Viability Assessment in the Tox21 HCT-116 p53 Agonism Beta-lactamase Assay, Phase 4 (AID 2283597);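 also: hits lower the luminescence signal meaning cytotoxicity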
# How it was run: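 Viability is taken as cellular ATP: after 16 h compound exposure of HCT116 cells and a 2 h room-temperature CCF4-AM substrate step, CellTiter-Glo reagent is added and luminescence is measured 30 min later.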
# [6] = target: Cellular tumor antigen p53 (Homo sapiens) (UniProt P04637); assay: TOX21_p53_BLA_p4_ratio: Tox21 HCT-116 p53 Agonism Beta-lactamase Assay, Ratio, Phase 4 (AID 2283601)
# How it was run: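 Signal is the blue/green (460nm/530nm) ratio of cleaved versus uncleaved CCF4-AM substrate, read after 2 h substrate loading. Cells were HCT116 carrying the p53-responsive beta-lactamase reporter, dosed 16 h at 37C, 5% CO2; CellTiter-Glo measured in parallel.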
# [7] = Tanguay_ZF_120hpf_EYE_legacy: (Legacy) Oregon State University Tanguay Lab 120 Hour Post-fertilization zebrafish Assay for Eye Malformation (AID 2283636);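 also: binary presence or absence of eye malformation scored by brightfield in 120 hpf larvae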
# How it was run: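 Binary brightfield scoring of eye defects at 120 hpf after static exposure from 6 hpf of single pronase-dechorionated wild-type embryos (28C, 0.64% DMSO). Non-mortality endpoints omitted where embryos died; fit vs DMSO.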
# [8] = ATG_XTT_Cytotoxicity: Cytotoxicity Assessment in the Attagene TRANS-FACTORIAL HepG2 Assay (AID 2283584);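 as to AC50: XTT signal for cell number as viability in transfected HepG2 cells; cells exposed to compound for 24 h before reading; active means loss of viability signal versus DMSO baseline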
# How it was run: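 Transfect HepG2 with GAL4-UAS reporter units, dose compound, incubate 24 h, then measure viable cell number by XTT. Fit concentration response against DMSO baseline.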
# [9] = target: Cellular tumor antigen p53 (Homo sapiens) (UniProt P04637); assay: TOX21_p53_BLA_p2_ratio: Tox21 HCT-116 p53 Agonism Beta-lactamase Assay, Ratio, Phase 2 (AID 2283592)
# How it was run: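 Cleaved-to-uncleaved substrate ratio (460 vs 530 nm) measured in HCT116 cells with an inducible beta-lactamase reporter linked to p53 activity. Compounds incubated 16 h at 37C before 2 h room-temperature CCF4-AM loading.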
# [10] = TOX21_p53_BLA_p3_viability: Viability Assessment in the Tox21 HCT-116 p53 Agonism Beta-lactamase Assay, Phase 3 (AID 2283593);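 also: cells exposed to compound for 16 h before reading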
# How it was run: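 Cellular ATP was quantified by CellTiter-Glo luminescence, read after 30 min at room temperature. Beforehand, HCT116 cells (4000/well) received compound 5 h post-seeding, 217-fold diluted from DMSO, then incubated 16 h at 37C.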
# [11] = target: Cellular tumor antigen p53 (Homo sapiens) (UniProt P04637); assay: TOX21_p53_BLA_p5_ratio: Tox21 HCT-116 p53 Agonism Beta-lactamase Assay, Ratio, Phase 5 (AID 2283599)
# How it was run: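 Beta-lactamase reporter ratio (blue 460 nm over green 530 nm, 405 nm excitation) after 2 h CCF4-AM loading, in HCT-116 cells exposed 16 h at 37 C to compounds pinned at 217-fold dilution. Increases relative to DMSO baseline scored.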
# [12] = TOX21_p53_BLA_p5_viability: Viability Assessment in the Tox21 HCT-116 p53 Agonism Beta-lactamase Assay, Phase 5 (AID 2283600)
# How it was run: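 Viability is taken from cellular ATP content, measured by luciferase luminescence in the same wells after the beta-lactamase ratio read. Cells are seeded at 4000 per well and exposed to DMSO-dissolved compounds, diluted 217-fold, for 16 h.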
# [13] = Tanguay_ZF_120hpf_SNOU_legacy: (Legacy) Oregon State University Tanguay Lab 120 Hour Post-fertilization zebrafish Assay for Snout Malformation (AID 2283637)
# How it was run: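 Binary snout-malformation call at 120 hpf in wild-type 5D embryos, chorion removed by pronase, under static exposure from 6 hpf at 28C (0.64% DMSO). Embryos dying by 24 or 120 hpf excluded.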
# [14] = Tanguay_ZF_120hpf_JAW_legacy: (Legacy) Oregon State University Tanguay Lab 120 Hour Post-fertilization zebrafish Assay for Jaw Malformation (AID 2283638);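 as to AC50: active means more embryos with jaw malformation than DMSO controls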
# How it was run: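 Static waterborne exposure of dechorionated wild-type (Tropical 5D) zebrafish from 6 to 120 hpf at 28C, 0.64% DMSO vehicle; 5uM trimethyltin chloride served as positive control. Jaw morphology recorded as binary at 120 hpf.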
# [15] = target: Peroxisome proliferator-activated receptor gamma (Homo sapiens) (UniProt P37231); assay: OT_PPARg_PPARgSRC1_1440: Odyssey Thera (OT) 24-hour Protein-Complementation Assay for Peroxisome Proliferator-activated Receptor Gamma/ SRC-1 Co-activator (AID 2283388);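 also: nuclear to cytoplasmic ratio of reconstituted Venus YFP fluorescence in fixed imaged cells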
# How it was run: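 Transient HEK293T, YFP fragments 1-158/159-239 (mutant IFP1/IFP2) fused to PPARg/SRC-1; 24 h dosing; fix 4% formaldehyde, Draq5; Opera imaging 488/635 nm; N/C ratio, gain vs DMSO.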
# [16] = Tanguay_ZF_120hpf_AXIS_legacy: (Legacy) Oregon State University Tanguay Lab 120 Hour Post-fertilization zebrafish Assay for Body Axis Malformation (AID 2283635)
# How it was run: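 Static 6–120 hpf chemical exposure of dechorionated wild-type 5D zebrafish, one per well at 28C; morphology endpoint scored binary at 120 hpf relative to DMSO control.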
# [17] = LTEA_HepaRG_LDH_cytotoxicity: Cytotoxicity Assessment in the Life Technologies and Expression Analysis (LTEA) Assay (AID 2283563);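 also: LDH activity released into spent culture medium as a marker of cell death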
# How it was run: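 Human HepaRG hepatic cells are treated with test chemicals for 48 h at up to 100 uM in 0.5% DMSO. Cytotoxicity is scored from medium LDH against the vehicle control.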
# [18] = Tanguay_ZF_120hpf_YSE_legacy: (Legacy) Oregon State University Tanguay Lab 120 Hour Post-fertilization zebrafish Assay for Yolk Sac Edema (AID 2283634);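 also: actives raise the incidence of yolk sac edema above the DMSO baseline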
# How it was run: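 Readout: presence or absence of yolk sac edema at 120 hpf, fitted upward against DMSO controls. Exposure ran statically from 6 hpf in dechorionated embryos kept at 28C.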
# [19] = target: Peroxisome proliferator-activated receptor gamma (Homo sapiens) (UniProt P37231); assay: OT_PPARg_PPARgSRC1_0480: Odyssey Thera (OT) 8-hour Protein-Complementation Assay for Peroxisome Proliferator-activated Receptor Gamma / SRC-1 Co-activator (AID 2283387);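 also: nuclear to cytoplasmic split Venus YFP fluorescence ratio reporting PPARg SRC-1 interaction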
# How it was run: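 Read-out: 488 nm N/C fluorescence ratio from complemented Venus YFP fragments, ≥350 cells per image, gain-of-signal fitted against DMSO baseline. Fusions of PPARg/SRC-1 with IFP1/IFP2 expressed transiently in HEK293T; compounds applied 8 h.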
structure (smiles),measurement,setting,value
CCCCCOC(=O)COc1cc(N2C(=O)C3=C(CCCC3)C2=O)c(F)cc1Cl,AC50,[1],inconclusive: 50 µM
OCC(CO)n1cnc(-c2ccc(F)cc2)c1-c1ccnc(Oc2ccccc2)n1,AC50,[1],inconclusive: 2.04 µM
same,outcome,[1],inactive
same,AC50,[2],inconclusive: 2.59 µM
same,outcome,[3],inactive
same,AC50,[4],inconclusive: 46.1 µM
same,outcome,[5],inactive
same,AC50,[6],inconclusive: 46.1 µM
same,AC50,[7],inconclusive: 2.49 µM
OC1CCCC1,AC50,[1],inconclusive: 86.3 µM
same,outcome,[2],inactive
same,AC50,[8],inconclusive: 100 µM
CCc1nc(N)nc(N)c1-c1ccc(Cl)cc1,AC50,[1],inconclusive: 50 µM
same,AC50,[2],inconclusive: 9.35 µM
same,outcome,[2],inactive
same,AC50,[9],active: 58.9 µM and active: 27 µM
same,AC50,[10],active: 46.1 µM and inconclusive: 46.7 µM and active: 18.5 µM
same,outcome,[4],inactive
same,outcome,[11],inactive
same,AC50,[12],active: 15.3 µM
same,outcome,[12],inactive
same,AC50,[6],active: 47.9 µM
same,outcome,[6],inactive
same,AC50,[7],inconclusive: 12.5 µM
same,AC50,[13],inconclusive: 57.4 µM
same,outcome,[14],inactive
CN(C)C(=O)Nc1ccc(Cl)c(Cl)c1,AC50,[1],inconclusive: 1.15 µM
same,AC50,[2],inconclusive: 50 µM
same,outcome,[2],inactive
same,AC50,[8],inconclusive: 26.3 µM
same,AC50,[3],inconclusive: 46 µM
same,AC50,[10],inconclusive: 46.1 µM and inconclusive: 59.1 µM
same,outcome,[10],inactive
same,AC50,[7],inconclusive: 0.15 µM
same,AC50,[14],inconclusive: 31.6 µM
COc1ccc(S(=O)(=O)N2C(=O)[C@@](c3ccccc3OC)(N3C[C@H](O)C[C@H]3C(=O)N(C)C)c3cc(Cl)ccc32)c(OC)c1,outcome,[1],inactive
same,AC50,[2],active: 79.5 µM
same,AC50,[15],inconclusive: 50 µM
same,AC50,[3],active: 86.3 µM
same,AC50,[9],active: 74.9 µM
same,AC50,[10],inconclusive: 46.1 µM
same,AC50,[5],active: 67.7 µM
same,AC50,[11],active: 75 µM
same,AC50,[12],active: 77.4 µM
same,AC50,[6],active: 86.6 µM
O=C(O)c1cccc(C(=O)O)c1,AC50,[1],inconclusive: 13.7 µM and inconclusive: 18.2 µM
same,AC50,[2],inconclusive: 12.7 µM and inconclusive: 21.7 µM
same,outcome,[8],inactive
O=C(c1ccccc1)C1CCCCC1,AC50,[1],inconclusive: 50 µM
same,outcome,[2],inactive
Cc1ccc(C)c(C)c1,outcome,[1],inactive
same,AC50,[2],inconclusive: 52 µM
same,outcome,[2],inactive
same,AC50,[3],inconclusive: 47.9 µM
same,outcome,[3],inactive
same,AC50,[9],inconclusive: 44.4 µM
same,AC50,[10],inconclusive: 65.6 µM
same,outcome,[10],inactive
same,AC50,[4],inconclusive: 90.2 µM
same,AC50,[5],inconclusive: 47.9 µM and inconclusive: 6.29 µM
same,AC50,[6],inconclusive: 83.9 µM
same,outcome,[6],inactive
same,AC50,[13],inconclusive: 1.45 µM
Cn1cnc([N+](=O)[O-])c1Sc1ncnc2nc[nH]c12,AC50,[1],inconclusive: 9.87 µM
same,AC50,[2],inconclusive: 11.5 µM
same,outcome,[2],inactive
same,AC50,[9],active: 18.9 µM and active: 31.3 µM
same,AC50,[10],active: 4.91 µM
same,AC50,[4],active: 30 µM and active: 33.1 µM
same,AC50,[5],active: 1.62 µM
same,AC50,[11],active: 29.8 µM and active: 34.8 µM
same,AC50,[6],active: 22.2 µM and active: 34.3 µM
same,outcome,[16],inactive
same,AC50,[7],inconclusive: 8.92 µM
Oc1ccc2ccccc2c1N=Nc1ccccc1,AC50,[1],inconclusive: 12.7 µM
same,AC50,[2],inconclusive: 11.4 µM and inconclusive: 50 µM
same,AC50,[17],inconclusive: 50 µM
same,AC50,[3],inconclusive: 46.1 µM
same,outcome,[3],inactive
same,outcome,[10],inactive
same,AC50,[4],inconclusive: 46.1 µM
same,outcome,[4],inactive
same,AC50,[5],inconclusive: 3.57 nM and inconclusive: 10.8 nM
same,outcome,[12],inactive
same,AC50,[18],active: 43.7 µM
same,AC50,[14],active: 9.73 µM
CCOC(=O)COc1ccc2c(c1)CC(NCC(O)c1cccc(Cl)c1)CC2 (configuration not stated),AC50,[1],active: 154 nM and active: 591 nM
same,AC50,[2],active: 10.7 µM and active: 10.3 µM
same,AC50,[19],inconclusive: 45.8 µM
same,AC50,[15],inconclusive: 71.5 µM and inconclusive: 75.4 µM
same,AC50,[3],active: 67.3 µM
same,AC50,[9],active: 70.3 µM
same,outcome,[10],inactive
same,AC50,[5],active: 80 µM
same,AC50,[6],active: 71.7 µM
same,outcome,[7],inactive
COC(=O)CC(=O)OC,outcome,[1],inactive
same,AC50,[2],inconclusive: 50 µM
same,outcome,[2],inactive
same,AC50,[8],inconclusive: 0.025 µM
same,outcome,[3],inactive
same,AC50,[9],inconclusive: 47.7 µM
same,AC50,[10],inconclusive: 46.1 µM and inconclusive: 47.7 µM
same,AC50,[5],inconclusive: 78.8 µM
same,outcome,[5],inactive
same,AC50,[6],inconclusive: 47.7 µM
same,AC50,[7],inconclusive: 1.03 µM
